# In the supplement of paper PMC8728848:
# The other results are listed elsewhere or left out.
# Key:
# Assay in all cases: glycan array binding signal (z-score within array); higher = stronger binding
# Settings in all cases: glycan notation: IUPAC condensed, linker removed
# [1] = target: Gal4S6S(b1-4)GlcNAc
# Outline: (§1)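 From the Consortium for Functional Glycomics database, 3228 arrays were curated, keeping only those whose protein sequence was available. Binding is given as a within-array Z-score averaged across arrays sharing a protein sequence and across linkers. Negative Z-scores can be read as non-binding.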
# [2] = target: Gal6P(b1-4)GlcNAc
# Outline: as §1
# [3] = target: Gal6S(b1-3)GlcNAc
# Outline: as §1
# [4] = target: Gal6S(b1-3)GlcNAc6S
# Outline: as §1
# [5] = target: Gal6S(b1-4)Glc
# Outline: as §1
# [6] = target: Gal6S(b1-4)Glc6S
# Outline: as §1
# [7] = target: Gal6S(b1-4)GlcNAc
# Outline: as §1
# [8] = target: Gal6S(b1-4)GlcNAc6S
# Outline: as §1
# [9] = target: GalNAc(a1-3)Gal
# Outline: as §1
# [10] = target: GalNAc(a1-3)GalNAc
# Outline: as §1
# [11] = target: GalNAc(a1-3)GalNAc(b1-3)Gal(a1-4)Gal(b1-4)Glc
# Outline: as §1
# [12] = target: GalNAc(a1-3)GalNAc(b1-3)Gal(a1-4)Gal(b1-4)GlcNAc
# Outline: as §1
# [13] = target: GalNAc(b1-3)Gal
# Outline: as §1
# [14] = target: GalNAc(b1-3)Gal(a1-4)Gal(b1-4)GlcNAc
# Outline: as §1
# [15] = target: GalNAc(b1-3)Gal(a1-4)Gal(b1-4)GlcNAc(b1-3)Gal(b1-4)Glc
# Outline: as §1
# [16] = target: GalNAc(b1-3)Gal(a1-6)Gal(b1-4)Glc
# Outline: as §1
# [17] = target: GalNAc(b1-3)GalNAc
# Outline: as §1
# [18] = target: GalNAc(b1-3)GlcNAc
# Outline: as §1
# [19] = target: GalNAc(b1-4)Gal(b1-4)Glc
# Outline: as §1
# [20] = target: GalNAc(b1-4)GlcNAc
# Outline: as §1
# [21] = target: GalNAc(b1-4)GlcNAc(b1-2)Man
# Outline: as §1
# [22] = target: GalNAc(b1-4)GlcNAc(b1-2)Man(a1-3)[GalNAc(b1-4)GlcNAc(b1-2)Man(a1-6)]Man(b1-4)GlcNAc(b1-4)GlcNAc
# Outline: as §1
# [23] = target: GalNAc(b1-4)GlcNAc(b1-3)GalNAc(b1-4)GlcNAc
# Outline: as §1
# [24] = target: GalNAc(b1-4)GlcNAc6S
# Outline: as §1
# [25] = target: GalNAc(b1-6)GalNAc
# Outline: as §1
# [26] = target: GalNAc3S(b1-4)GlcNAc
# Outline: as §1
# [27] = target: GalNAc3S(b1-4)GlcNAc3S
# Outline: as §1
# [28] = target: GalNAc3S(b1-4)[Fuc(a1-3)]GlcNAc
# Outline: as §1
# [29] = target: GalNAc4S6S(b1-4)GlcNAc
# Outline: as §1
# [30] = target: GalNAc6S(b1-4)GlcNAc
# Outline: as §1
# [31] = target: Glc(a1-4)Glc
# Outline: as §1
# [32] = target: Glc(a1-4)Glc(a1-4)Glc(a1-4)Glc
# Outline: as §1
# [33] = target: Glc(a1-6)Glc(a1-6)Glc
# Outline: as §1
# [34] = target: Glc(a1-6)Glc(a1-6)Glc(a1-6)Glc
# Outline: as §1
# [35] = target: Glc(b1-4)Glc
# Outline: as §1
# [36] = target: Glc(b1-6)Glc
# Outline: as §1
# [37] = target: GlcA(b1-3)Gal
# Outline: as §1
binder,measurement,setting,value
"LlpA1 (Pseudomonas fluorescens), Q4KHC3 (protein) MGSSHHHHHHSSGLVPRGSHMAWIRYDFTDNGSSVLPARYYMAPNQYLQSPNKRFKLLFQADGNLALYDGAQLAWVADQNTPFTNVSKGNKKDPMMVFMNYGFVLDDPLRGRIWSTTPSDPTMGSREDASLRAFTQVQDDGNIVTVDTIPHWYAPNGRVFTPAVGAAMIIGGTTELVPGQFYSAGEHSLVFQGDGNLVVYGPNSSVIWATYTQNKGGVRCVMQEDGNLVIYAANNGVVWQSGTGGHPGATIRLQANGSFTIVTERPVWARFGYTPTIKPPRVFYPDHKWKTGSYTWNNVF",glycan array binding signal (z-score),[1],-0.461
same,glycan array binding signal (z-score),[2],-0.476
same,glycan array binding signal (z-score),[3],0.571
same,glycan array binding signal (z-score),[4],-0.202
same,glycan array binding signal (z-score),[5],-0.314
same,glycan array binding signal (z-score),[6],0.637
same,glycan array binding signal (z-score),[7],0.079
same,glycan array binding signal (z-score),[8],-0.144
same,glycan array binding signal (z-score),[9],0.451
same,glycan array binding signal (z-score),[10],0.146
same,glycan array binding signal (z-score),[11],-0.323
same,glycan array binding signal (z-score),[12],-0.542
same,glycan array binding signal (z-score),[13],-0.721
same,glycan array binding signal (z-score),[14],-0.435
same,glycan array binding signal (z-score),[15],-0.126
same,glycan array binding signal (z-score),[16],0.158
same,glycan array binding signal (z-score),[17],-0.296
same,glycan array binding signal (z-score),[18],0.019
same,glycan array binding signal (z-score),[19],0.17
same,glycan array binding signal (z-score),[20],-0.039
same,glycan array binding signal (z-score),[21],-0.701
same,glycan array binding signal (z-score),[22],-0.416
same,glycan array binding signal (z-score),[23],0.269
same,glycan array binding signal (z-score),[24],1.64
same,glycan array binding signal (z-score),[25],0.428
same,glycan array binding signal (z-score),[26],0.397
same,glycan array binding signal (z-score),[27],-0.175
same,glycan array binding signal (z-score),[28],-0.405
same,glycan array binding signal (z-score),[29],-0.403
same,glycan array binding signal (z-score),[30],1.35
same,glycan array binding signal (z-score),[31],0.211
same,glycan array binding signal (z-score),[32],0.295
same,glycan array binding signal (z-score),[33],-0.682
same,glycan array binding signal (z-score),[34],-0.031
same,glycan array binding signal (z-score),[35],-1.02
same,glycan array binding signal (z-score),[36],0.393
same,glycan array binding signal (z-score),[37],-0.612

# Part of the list above, reformatted.
binder | measurement | setting | value
LlpA1 (Pseudomonas fluorescens), Q4KHC3 (protein) MGSSHHHHHHSSGLVPRGSHMAWIRYDFTDNGSSVLPARYYMAPNQYLQSPNKRFKLLFQADGNLALYDGAQLAWVADQNTPFTNVSKGNKKDPMMVFMNYGFVLDDPLRGRIWSTTPSDPTMGSREDASLRAFTQVQDDGNIVTVDTIPHWYAPNGRVFTPAVGAAMIIGGTTELVPGQFYSAGEHSLVFQGDGNLVVYGPNSSVIWATYTQNKGGVRCVMQEDGNLVIYAANNGVVWQSGTGGHPGATIRLQANGSFTIVTERPVWARFGYTPTIKPPRVFYPDHKWKTGSYTWNNVF | glycan array binding signal (z-score) | [1] | -0.461
same | glycan array binding signal (z-score) | [20] | -0.039
